Results are given in words; binding and its absence hold for the method and conditions named. Binding seen in cells or lysates may run through a third protein.
How the values were obtained:
[1] = target: GST-tagged constitutively active (G12V) K-Ras (UniProt P01116); assay: pull-down; GST proteins on glutathione-Sepharose beads incubated 3 h at 4 C with lysate of HEK293 cells transfected with Myc-C-Raf alone, Myc-C-Raf and Myc-IQGAP1, or Myc-C-Raf and Myc-IQGAP3; lysis buffer (150 mM NaCl, 1% Triton X-100, 200 mM Tris-HCl pH 7.4) with 1 mM EGTA; Western blot; only the target purified
[2] = target: FLAG-tagged constitutively active (G12V) K-Ras (UniProt P01116); assay: co-IP; HEK293 cells transfected with FLAG-Ras G12V; anti-FLAG M2 magnetic beads 4 h at 4 C; lysis buffer 150 mM NaCl, 1% Triton X-100, 200 mM Tris-HCl pH 7.4; Western blot

Sequences of proteins named here, by UniProt entry; tags and fusion partners are left off.
UniProt Q86VI3: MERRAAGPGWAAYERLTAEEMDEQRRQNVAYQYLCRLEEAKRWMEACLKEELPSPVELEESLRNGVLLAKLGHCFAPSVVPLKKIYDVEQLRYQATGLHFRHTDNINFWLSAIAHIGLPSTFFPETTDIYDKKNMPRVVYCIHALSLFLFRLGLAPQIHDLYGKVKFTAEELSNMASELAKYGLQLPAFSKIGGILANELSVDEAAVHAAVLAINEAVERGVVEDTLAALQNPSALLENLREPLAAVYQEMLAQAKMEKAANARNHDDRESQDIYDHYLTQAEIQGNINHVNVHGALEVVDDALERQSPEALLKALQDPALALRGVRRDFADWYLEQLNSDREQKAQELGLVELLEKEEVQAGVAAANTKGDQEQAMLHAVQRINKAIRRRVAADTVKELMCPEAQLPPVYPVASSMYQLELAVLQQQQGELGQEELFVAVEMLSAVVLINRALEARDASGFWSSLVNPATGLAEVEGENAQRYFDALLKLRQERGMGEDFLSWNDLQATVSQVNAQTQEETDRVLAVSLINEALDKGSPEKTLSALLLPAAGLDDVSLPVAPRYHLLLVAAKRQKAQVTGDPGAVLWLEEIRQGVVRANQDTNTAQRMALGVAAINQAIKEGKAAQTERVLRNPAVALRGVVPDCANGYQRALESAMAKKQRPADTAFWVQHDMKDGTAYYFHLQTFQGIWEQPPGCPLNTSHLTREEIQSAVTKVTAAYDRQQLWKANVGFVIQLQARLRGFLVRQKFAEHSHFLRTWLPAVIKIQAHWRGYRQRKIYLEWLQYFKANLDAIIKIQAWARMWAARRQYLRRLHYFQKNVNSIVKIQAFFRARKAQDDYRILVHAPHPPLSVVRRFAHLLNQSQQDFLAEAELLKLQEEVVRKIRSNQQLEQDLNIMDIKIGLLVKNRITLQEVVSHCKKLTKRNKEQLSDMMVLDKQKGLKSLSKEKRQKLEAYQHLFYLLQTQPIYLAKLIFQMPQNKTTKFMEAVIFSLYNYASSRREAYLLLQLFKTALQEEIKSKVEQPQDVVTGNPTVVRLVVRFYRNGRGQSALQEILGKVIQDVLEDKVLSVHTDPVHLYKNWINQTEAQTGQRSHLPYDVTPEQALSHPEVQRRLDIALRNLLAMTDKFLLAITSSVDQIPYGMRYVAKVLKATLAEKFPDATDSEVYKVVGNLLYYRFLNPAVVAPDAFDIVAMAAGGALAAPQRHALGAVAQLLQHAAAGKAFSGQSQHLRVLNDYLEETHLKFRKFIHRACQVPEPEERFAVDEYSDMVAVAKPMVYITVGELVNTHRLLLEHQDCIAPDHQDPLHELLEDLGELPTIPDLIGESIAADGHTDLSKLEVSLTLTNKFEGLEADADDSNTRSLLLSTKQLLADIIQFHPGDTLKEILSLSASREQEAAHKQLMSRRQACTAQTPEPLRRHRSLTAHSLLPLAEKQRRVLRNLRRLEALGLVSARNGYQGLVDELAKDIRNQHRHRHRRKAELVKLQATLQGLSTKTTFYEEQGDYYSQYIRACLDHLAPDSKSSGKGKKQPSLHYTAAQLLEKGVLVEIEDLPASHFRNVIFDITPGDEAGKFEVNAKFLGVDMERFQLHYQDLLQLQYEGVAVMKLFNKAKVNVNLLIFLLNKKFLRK

Row | binding [1] | binding [2] | Substance
1 | no binding | no binding | endogenous IQGAP1 (from UniProt P46940 1-1657)
2 | no binding | no binding | endogenous IQGAP3 (from UniProt Q86VI3 1-1631)
